# ± gives the standard deviation of the averaged measurements. This is a selection; strong and weak results do not stand in their true shares.
# Chains of the proteins cited; added tags and fusions are not shown. Lines headed by an entry give the natural chain unless they say otherwise; changes in a name come on top.
# UniProt Q9NYS0: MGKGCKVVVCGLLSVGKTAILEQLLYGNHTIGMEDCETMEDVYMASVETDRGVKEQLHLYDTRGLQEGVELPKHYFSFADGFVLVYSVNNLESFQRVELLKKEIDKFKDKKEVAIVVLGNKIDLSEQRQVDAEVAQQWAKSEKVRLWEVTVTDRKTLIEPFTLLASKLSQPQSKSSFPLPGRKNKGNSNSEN
# UniProt Q93075: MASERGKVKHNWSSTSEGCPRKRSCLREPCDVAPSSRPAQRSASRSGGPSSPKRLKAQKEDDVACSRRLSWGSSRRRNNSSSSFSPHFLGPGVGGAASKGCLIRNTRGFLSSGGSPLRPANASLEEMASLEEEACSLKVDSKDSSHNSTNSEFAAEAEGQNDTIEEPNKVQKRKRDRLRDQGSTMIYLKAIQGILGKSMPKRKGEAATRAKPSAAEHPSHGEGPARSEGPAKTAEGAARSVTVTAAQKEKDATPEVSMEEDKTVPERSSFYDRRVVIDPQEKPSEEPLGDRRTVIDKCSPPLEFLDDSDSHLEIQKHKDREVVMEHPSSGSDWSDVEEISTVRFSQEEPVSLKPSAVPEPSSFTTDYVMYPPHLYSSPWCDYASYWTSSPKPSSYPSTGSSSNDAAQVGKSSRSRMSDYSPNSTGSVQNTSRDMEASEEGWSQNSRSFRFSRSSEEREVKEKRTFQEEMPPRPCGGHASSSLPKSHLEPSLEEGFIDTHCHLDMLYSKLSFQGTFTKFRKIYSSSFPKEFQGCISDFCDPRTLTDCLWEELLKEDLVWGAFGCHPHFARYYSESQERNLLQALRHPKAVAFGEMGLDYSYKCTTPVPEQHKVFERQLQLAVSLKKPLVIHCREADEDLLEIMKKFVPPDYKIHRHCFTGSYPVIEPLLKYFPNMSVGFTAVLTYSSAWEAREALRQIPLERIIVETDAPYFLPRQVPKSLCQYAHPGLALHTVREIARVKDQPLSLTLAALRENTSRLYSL
# UniProt O43776: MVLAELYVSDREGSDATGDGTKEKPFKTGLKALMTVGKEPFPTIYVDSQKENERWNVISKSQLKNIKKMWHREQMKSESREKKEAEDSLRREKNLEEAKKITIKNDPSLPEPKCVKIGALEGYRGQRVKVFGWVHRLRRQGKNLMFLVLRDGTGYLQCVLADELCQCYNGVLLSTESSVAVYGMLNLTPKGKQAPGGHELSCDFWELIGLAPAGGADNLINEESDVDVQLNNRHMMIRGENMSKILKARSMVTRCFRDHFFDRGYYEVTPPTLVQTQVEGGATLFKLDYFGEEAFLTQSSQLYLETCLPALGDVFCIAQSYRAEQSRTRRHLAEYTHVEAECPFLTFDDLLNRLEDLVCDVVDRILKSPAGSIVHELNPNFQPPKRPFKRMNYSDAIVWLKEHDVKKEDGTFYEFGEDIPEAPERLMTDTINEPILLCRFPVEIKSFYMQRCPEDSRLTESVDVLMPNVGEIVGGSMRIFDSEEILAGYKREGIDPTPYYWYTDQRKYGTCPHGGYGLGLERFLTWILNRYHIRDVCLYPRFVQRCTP
# UniProt P14314: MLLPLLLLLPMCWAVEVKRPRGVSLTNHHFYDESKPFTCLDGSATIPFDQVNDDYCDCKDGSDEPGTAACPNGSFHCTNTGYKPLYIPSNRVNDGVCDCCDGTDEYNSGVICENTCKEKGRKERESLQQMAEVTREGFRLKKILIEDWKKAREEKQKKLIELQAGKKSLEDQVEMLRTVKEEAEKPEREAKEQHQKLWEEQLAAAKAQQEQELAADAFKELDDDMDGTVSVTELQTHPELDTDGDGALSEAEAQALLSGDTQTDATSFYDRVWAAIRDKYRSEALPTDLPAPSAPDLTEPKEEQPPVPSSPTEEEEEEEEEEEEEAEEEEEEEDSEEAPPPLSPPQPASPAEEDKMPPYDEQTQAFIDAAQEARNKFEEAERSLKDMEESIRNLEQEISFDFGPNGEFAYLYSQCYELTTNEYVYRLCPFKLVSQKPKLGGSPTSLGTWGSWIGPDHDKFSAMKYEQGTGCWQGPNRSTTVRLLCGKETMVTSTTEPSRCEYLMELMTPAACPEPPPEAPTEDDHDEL
# UniProt O95166, whole entry: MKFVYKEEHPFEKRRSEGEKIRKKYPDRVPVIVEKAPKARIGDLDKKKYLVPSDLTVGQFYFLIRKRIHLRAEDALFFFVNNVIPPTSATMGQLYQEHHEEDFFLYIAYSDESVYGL
# UniProt Q15831: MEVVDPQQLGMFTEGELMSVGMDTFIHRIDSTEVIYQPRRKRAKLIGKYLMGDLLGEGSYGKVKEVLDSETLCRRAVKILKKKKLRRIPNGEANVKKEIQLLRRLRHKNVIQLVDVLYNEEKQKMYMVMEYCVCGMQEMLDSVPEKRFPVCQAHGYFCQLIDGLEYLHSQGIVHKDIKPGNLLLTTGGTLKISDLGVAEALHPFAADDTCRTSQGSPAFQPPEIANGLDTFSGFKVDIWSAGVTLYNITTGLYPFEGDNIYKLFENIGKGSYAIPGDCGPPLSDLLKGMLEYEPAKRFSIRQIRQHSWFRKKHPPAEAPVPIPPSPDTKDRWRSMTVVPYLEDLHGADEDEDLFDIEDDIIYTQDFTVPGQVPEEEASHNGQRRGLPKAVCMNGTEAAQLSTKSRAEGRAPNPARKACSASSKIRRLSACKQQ
# UniProt Q9UBC2: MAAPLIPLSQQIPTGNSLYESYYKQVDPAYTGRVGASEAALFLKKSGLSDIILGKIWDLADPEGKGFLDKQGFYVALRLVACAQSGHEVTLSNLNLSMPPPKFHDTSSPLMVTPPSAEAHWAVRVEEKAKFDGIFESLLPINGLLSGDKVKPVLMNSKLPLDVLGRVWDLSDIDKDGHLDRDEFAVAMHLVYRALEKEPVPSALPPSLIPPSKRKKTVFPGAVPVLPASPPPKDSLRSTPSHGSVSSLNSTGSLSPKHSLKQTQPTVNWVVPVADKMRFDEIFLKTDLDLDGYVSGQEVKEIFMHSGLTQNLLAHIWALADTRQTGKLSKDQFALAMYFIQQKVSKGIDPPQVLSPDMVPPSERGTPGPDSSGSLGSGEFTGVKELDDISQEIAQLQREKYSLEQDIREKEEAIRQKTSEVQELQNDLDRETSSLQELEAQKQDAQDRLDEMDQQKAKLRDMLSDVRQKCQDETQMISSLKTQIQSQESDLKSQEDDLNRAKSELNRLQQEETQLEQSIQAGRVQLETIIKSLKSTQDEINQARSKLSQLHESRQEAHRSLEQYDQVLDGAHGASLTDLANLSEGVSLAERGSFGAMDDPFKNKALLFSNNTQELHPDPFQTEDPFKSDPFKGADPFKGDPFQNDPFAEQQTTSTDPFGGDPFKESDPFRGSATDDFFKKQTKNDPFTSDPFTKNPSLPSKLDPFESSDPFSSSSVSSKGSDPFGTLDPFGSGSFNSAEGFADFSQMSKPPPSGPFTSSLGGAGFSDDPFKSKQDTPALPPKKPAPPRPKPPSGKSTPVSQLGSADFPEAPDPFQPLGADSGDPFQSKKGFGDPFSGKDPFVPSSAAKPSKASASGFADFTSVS
# UniProt Q96GQ5: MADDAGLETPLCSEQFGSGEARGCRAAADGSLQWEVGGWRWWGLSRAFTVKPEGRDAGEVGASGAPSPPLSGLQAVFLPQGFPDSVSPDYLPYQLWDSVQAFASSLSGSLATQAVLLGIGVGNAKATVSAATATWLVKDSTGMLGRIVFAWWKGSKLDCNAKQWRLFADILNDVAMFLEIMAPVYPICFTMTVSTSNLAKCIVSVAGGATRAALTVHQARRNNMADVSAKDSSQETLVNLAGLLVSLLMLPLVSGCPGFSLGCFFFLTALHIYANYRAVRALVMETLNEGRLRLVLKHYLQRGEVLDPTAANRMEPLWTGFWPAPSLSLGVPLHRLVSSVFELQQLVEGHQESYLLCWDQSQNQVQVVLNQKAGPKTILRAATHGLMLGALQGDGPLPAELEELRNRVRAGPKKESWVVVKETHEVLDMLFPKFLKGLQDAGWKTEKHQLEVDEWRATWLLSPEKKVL
# UniProt Q9HCN3: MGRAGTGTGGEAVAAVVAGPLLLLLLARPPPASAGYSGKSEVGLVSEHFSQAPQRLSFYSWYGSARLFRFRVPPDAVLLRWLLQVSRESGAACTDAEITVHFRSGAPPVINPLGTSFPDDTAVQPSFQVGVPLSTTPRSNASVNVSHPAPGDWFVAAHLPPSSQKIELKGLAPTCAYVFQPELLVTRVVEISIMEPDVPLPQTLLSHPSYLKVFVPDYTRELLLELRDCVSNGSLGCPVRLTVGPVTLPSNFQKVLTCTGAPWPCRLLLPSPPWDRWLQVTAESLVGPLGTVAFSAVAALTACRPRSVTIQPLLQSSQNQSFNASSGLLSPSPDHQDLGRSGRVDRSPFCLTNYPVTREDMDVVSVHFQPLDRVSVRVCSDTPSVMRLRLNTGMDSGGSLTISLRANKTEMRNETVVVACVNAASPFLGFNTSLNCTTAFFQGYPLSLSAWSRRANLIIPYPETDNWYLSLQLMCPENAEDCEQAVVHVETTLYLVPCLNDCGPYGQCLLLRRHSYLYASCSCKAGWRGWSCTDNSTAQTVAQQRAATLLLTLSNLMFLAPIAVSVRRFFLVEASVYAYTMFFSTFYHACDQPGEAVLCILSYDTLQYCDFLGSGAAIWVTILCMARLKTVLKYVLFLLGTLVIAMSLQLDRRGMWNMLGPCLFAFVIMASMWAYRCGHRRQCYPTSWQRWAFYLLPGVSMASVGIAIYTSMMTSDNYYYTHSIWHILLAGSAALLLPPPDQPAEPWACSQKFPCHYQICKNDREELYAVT
# UniProt Q96AX1: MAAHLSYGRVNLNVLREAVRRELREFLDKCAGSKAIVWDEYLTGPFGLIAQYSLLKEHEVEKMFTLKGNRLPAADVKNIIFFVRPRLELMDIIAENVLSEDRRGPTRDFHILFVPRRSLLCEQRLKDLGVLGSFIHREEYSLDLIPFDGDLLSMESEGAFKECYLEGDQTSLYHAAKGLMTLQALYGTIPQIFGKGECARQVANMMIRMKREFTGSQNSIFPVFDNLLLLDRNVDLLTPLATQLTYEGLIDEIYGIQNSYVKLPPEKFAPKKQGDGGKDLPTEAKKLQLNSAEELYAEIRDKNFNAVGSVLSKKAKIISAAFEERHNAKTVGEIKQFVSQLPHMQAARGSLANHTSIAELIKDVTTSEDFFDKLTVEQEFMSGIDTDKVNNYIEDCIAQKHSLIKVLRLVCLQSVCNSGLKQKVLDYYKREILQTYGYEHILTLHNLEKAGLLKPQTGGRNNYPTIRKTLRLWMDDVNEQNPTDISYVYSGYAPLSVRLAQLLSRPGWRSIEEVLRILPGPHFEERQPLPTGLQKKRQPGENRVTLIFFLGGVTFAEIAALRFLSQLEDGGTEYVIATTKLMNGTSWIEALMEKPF
# UniProt Q9Y2V0: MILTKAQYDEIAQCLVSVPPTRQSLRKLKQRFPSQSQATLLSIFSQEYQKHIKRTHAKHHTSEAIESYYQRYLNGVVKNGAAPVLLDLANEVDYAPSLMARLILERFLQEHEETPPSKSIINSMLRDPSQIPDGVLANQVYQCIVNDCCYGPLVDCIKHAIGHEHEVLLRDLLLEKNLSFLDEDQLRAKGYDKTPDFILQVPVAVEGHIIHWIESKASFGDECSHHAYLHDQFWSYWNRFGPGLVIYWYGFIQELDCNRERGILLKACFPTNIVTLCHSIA
# UniProt Q8NCH0: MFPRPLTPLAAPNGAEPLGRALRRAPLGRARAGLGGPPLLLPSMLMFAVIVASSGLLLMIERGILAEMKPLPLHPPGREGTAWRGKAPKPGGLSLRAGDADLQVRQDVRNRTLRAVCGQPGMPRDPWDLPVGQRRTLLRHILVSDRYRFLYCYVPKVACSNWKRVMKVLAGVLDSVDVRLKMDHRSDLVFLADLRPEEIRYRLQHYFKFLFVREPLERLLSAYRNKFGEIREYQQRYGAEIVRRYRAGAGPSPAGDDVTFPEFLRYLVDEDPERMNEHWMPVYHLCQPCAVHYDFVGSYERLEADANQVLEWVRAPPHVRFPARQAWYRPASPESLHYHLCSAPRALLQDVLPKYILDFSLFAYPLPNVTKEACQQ
# UniProt O43566: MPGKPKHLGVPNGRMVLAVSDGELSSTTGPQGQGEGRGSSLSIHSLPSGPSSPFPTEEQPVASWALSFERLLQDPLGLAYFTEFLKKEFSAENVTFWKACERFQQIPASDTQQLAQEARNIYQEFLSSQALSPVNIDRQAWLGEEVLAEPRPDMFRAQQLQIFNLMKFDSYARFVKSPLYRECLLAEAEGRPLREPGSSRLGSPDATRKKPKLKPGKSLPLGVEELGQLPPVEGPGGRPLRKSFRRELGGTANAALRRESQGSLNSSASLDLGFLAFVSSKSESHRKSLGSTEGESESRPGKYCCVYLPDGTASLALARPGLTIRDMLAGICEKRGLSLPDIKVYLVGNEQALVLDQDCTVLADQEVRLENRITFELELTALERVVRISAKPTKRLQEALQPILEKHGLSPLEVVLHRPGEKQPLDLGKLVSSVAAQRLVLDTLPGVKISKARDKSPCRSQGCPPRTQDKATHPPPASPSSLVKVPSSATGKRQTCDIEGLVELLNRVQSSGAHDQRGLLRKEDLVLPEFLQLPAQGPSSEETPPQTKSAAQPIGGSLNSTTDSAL
# Compound: Nc1ncnc2c1ncn2[C@@H]1O[C@H](COP(=O)(O)OP(=O)(O)OP(=O)(O)O)[C@@H](O)[C@H]1O [adenosine triphosphate]
# Test: NP40-soluble protein abundance relative to vehicle (solubility fold change) (ratio); higher = more soluble protein in presence of ATP
# In short: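 Jurkat crude lysate (Dounce-homogenised) was treated with eight concentrations from 0.1 to 10 mM for 10 min at room temperature, then 3 min at 37 °C. It was solubilised with 0.8% NP40 and benzonase (60 min, 4 °C) and ultracentrifuged, and the supernatant was TMT-labelled for LC-MS/MS. Intensities were vsn-normalised, and the value is the fold change against the NP40-processed vehicle per replicate, from three independent experiments.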
Target,NP40-soluble protein abundance (concentration: 1mM),NP40-soluble protein abundance (concentration: 2mM),NP40-soluble protein abundance (concentration: 4mM),NP40-soluble protein abundance (concentration: 6mM),NP40-soluble protein abundance (concentration: 8mM),NP40-soluble protein abundance (concentration: 10mM)
G5E9P3 and related entries (UniProt Q9NYS0),1.4 ± 0.2,1.22 ± 0.12,1.18 ± 0.03,1.19 ± 0.025,1.09 ± 0.075,1.014 ± 0.0066
H7C1W4 and related entries (UniProt Q93075+H7C1W4),0.984 ± 0.056,0.999 ± 0.14,1.18 ± 0.15,1.15 ± 0.17,1.14 ± 0.076,1.11 ± 0.024
K7ENF0 and related entries (UniProt O43776),0.972 ± 0.026,0.962 ± 0.044,0.9276 ± 0.0063,0.905 ± 0.043,0.975 ± 0.053,0.948 ± 0.05
K7ELL7 and related entries (UniProt P14314),0.922 ± 0.02,0.907 ± 0.014,0.878 ± 0.016,0.921 ± 0.026,0.897 ± 0.037,0.877 ± 0.0098
H6UMI1 and related entries (UniProt O95166),0.91 ± 0.082,0.932 ± 0.0017,0.87 ± 0.027,0.987 ± 0.038,0.909 ± 0.023,0.913 ± 0.056
K7EP59 and related entries (UniProt Q15831),0.986 ± 0.018,0.942 ± 0.083,1.01 ± 0.054,0.998 ± 0.026,0.975 ± 0.1,0.979 ± 0.061
M0QY01 and related entries (UniProt Q9UBC2),0.932 ± 0.032,0.9579 ± 0.0066,0.932 ± 0.0096,0.964 ± 0.022,0.919 ± 0.019,0.922 ± 0.033
H3BSM7 and related entries (UniProt Q96GQ5),0.998 ± 0.051,1 ± 0.073,0.997 ± 0.015,0.959 ± 0.07,1.01 ± 0.069,1.02 ± 0.085
K4DI83 and related entries (UniProt Q9HCN3),1.04 ± 0.11,0.966 ± 0.12,1.06 ± 0.14,1.01 ± 0.16,0.963 ± 0.09,0.922 ± 0.13
M0QX46 and related entries (UniProt Q6UUV9),1.02 ± 0.09,1.01 ± 0.025,1.02 ± 0.048,0.978 ± 0.069,0.969 ± 0.041,0.9412 ± 0.008
H3BMM5 and related entries (UniProt Q96AX1+H3BMM5),1.02 ± 0.089,0.994 ± 0.044,0.996 ± 0.02,0.932 ± 0.061,1.01 ± 0.025,1.01 ± 0.039
H3BNF9 and related entries (UniProt Q9Y2V0),0.916 ± 0.014,0.962 ± 0.085,0.935 ± 0.022,0.9479 ± 0.0044,0.946 ± 0.037,0.9143 ± 0.0013
H0YN65 and related entries (UniProt Q8NCH0),0.905 ± 0.067,0.946 ± 0.16,0.909 ± 0.12,0.919 ± 0.15,0.982 ± 0.14,0.994 ± 0.11
H0Y8W3 and related entries (UniProt O43566),1 ± 0.029,1 ± 0.019,0.993 ± 0.014,0.999 ± 0.017,0.969 ± 0.019,0.981 ± 0.027
H0YEU4 and related entries (UniProt Q03164),1.09 ± 0.024,1.13 ± 0.031,1.16 ± 0.05,1.2 ± 0.086,1.18 ± 0.05,1.23 ± 0.042

# Some of the entries so far, with bars between the fields:
Target | NP40-soluble protein abundance (concentration: 1mM) | NP40-soluble protein abundance (concentration: 2mM) | NP40-soluble protein abundance (concentration: 4mM) | NP40-soluble protein abundance (concentration: 6mM) | NP40-soluble protein abundance (concentration: 8mM) | NP40-soluble protein abundance (concentration: 10mM)
H3BSM7 and related entries (UniProt Q96GQ5) | 0.998 ± 0.051 | 1 ± 0.073 | 0.997 ± 0.015 | 0.959 ± 0.07 | 1.01 ± 0.069 | 1.02 ± 0.085
H3BMM5 and related entries (UniProt Q96AX1+H3BMM5) | 1.02 ± 0.089 | 0.994 ± 0.044 | 0.996 ± 0.02 | 0.932 ± 0.061 | 1.01 ± 0.025 | 1.01 ± 0.039
H0Y8W3 and related entries (UniProt O43566) | 1 ± 0.029 | 1 ± 0.019 | 0.993 ± 0.014 | 0.999 ± 0.017 | 0.969 ± 0.019 | 0.981 ± 0.027
